Record: PubChem BioAssay AID1259308 (NCATS, 2017)
In all, the deposit lists about 59,000 reagents; shown is an unselected part. About 1,510 of all reagents (2.6%) were called active. 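Calls use total luciferase alone and ignore viability, so some active siRNAs may act by altering cell number.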 Not all columns of the deposit are shown.

Test: 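Genes whose loss raises luciferase production in HEK293 cells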 (primary screen)
Cell system: human HEK293 embryonic kidney cells stably expressing firefly luciferase (HEK-CMV-Luc2-Hygro)
Reagents: single siRNA against human genes, 0.8 pmol siRNA per well
Duration: 72 h
Measured: 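Luciferase light (ONE-Glo) measured on one replicate plate set and viability (CellTiter-Glo) on the other, scaled to a negative control siRNA, with robust z-scores and luciferase per cell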
Scale: total luciferase, z-score and total luciferase, % of control: higher = more reporter protein produced
Call rule: 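Active when the median/MAD z-score for overall luciferase is greater than 3; a gene was taken forward for validation with new siRNAs if at least two of its three siRNAs passed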
Calls: active = raised luciferase; inactive = no rise

| gene | PubChem SID | total luciferase, z-score | total luciferase, % of control | outcome |
| --- | --- | --- | --- | --- |
| ZNF354B (zinc finger protein 354B) | SID160755604 | 1.18 | 105 | inactive |
| ZNF354B (zinc finger protein 354B) | SID160755605 | 0.194 | 85.7 | inactive |
| ZNF354B (zinc finger protein 354B) | SID160755606 | 0.181 | 85.5 | inactive |
| ADGRA2 (adhesion G protein-coupled receptor A2) | SID160737337 | -0.636 | 69.2 | inactive |
| ADGRA2 (adhesion G protein-coupled receptor A2) | SID160737338 | -0.798 | 66 | inactive |
| ADGRA2 (adhesion G protein-coupled receptor A2) | SID160737339 | -1.25 | 57 | inactive |
| SSX5 (SSX family member 5) | SID160717414 | 0.983 | 101 | inactive |
| SSX5 (SSX family member 5) | SID160724089 | -0.493 | 72.1 | inactive |
| SSX5 (SSX family member 5) | SID160724090 | 0.125 | 84.4 | inactive |
| NAT14 (N-acetyltransferase 14 (putative)) | SID160731581 | -1.85 | 45.2 | inactive |
| NAT14 (N-acetyltransferase 14 (putative)) | SID160745608 | 0.293 | 87.7 | inactive |
| NAT14 (N-acetyltransferase 14 (putative)) | SID160745610 | 0.433 | 90.5 | inactive |
| GGA2 | SID160730823 | 0.219 | 86.3 | inactive |
| GGA2 | SID160735356 | 1.37 | 109 | inactive |
| GGA2 | SID160735357 | -0.798 | 66 | inactive |

As entered above.
Result of ADGRA2 (adhesion G protein-coupled receptor A2) [SID160737337] under “total luciferase, % of control”: 69.2
ADGRA2 (adhesion G protein-coupled receptor A2) [SID160737339], total luciferase, z-score = -1.25

The listing continues:
| gene | PubChem SID | total luciferase, z-score | total luciferase, % of control | outcome |
| --- | --- | --- | --- | --- |
| TMEM170A (transmembrane protein 170A) | SID160756182 | -0.371 | 74.5 | inactive |
| TMEM170A (transmembrane protein 170A) | SID160756183 | 0.0108 | 82.1 | inactive |
| TMEM170A (transmembrane protein 170A) | SID160756184 | 1.74 | 116 | inactive |
| PABPN1 (poly(A) binding protein nuclear 1) | SID160719639 | 3.94 | 160 | active |
| PABPN1 (poly(A) binding protein nuclear 1) | SID160719640 | 0.98 | 101 | inactive |
| PABPN1 (poly(A) binding protein nuclear 1) | SID160719641 | 0.802 | 97.8 | inactive |
| NGFR (nerve growth factor receptor) | SID160723955 | -0.532 | 71.3 | inactive |
| NGFR (nerve growth factor receptor) | SID160723956 | -0.0683 | 80.5 | inactive |
| NGFR (nerve growth factor receptor) | SID160778057 | -0.667 | 68.6 | inactive |
